According to PMC12434046:
No constants are given. Whether binding was seen depends on the method and setting. Binding seen in cells or lysates may run through a third protein. Some binding calls cover weakened binding; strength is not graded here.

Chains of the proteins cited; added tags and fusions are not shown. Residues count along the entry.
UniProt P24864: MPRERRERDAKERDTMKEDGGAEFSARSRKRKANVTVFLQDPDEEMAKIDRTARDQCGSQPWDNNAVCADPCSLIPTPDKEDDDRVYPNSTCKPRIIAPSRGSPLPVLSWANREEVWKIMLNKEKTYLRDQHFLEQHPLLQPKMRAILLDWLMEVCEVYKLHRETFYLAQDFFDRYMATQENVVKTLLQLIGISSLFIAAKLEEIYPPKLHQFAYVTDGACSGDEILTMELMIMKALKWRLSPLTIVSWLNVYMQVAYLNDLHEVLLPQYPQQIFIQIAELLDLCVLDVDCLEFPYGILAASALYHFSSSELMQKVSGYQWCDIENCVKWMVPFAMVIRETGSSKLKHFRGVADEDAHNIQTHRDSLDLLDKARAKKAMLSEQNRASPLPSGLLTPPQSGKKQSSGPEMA
UniProt P08246, residues 30-267: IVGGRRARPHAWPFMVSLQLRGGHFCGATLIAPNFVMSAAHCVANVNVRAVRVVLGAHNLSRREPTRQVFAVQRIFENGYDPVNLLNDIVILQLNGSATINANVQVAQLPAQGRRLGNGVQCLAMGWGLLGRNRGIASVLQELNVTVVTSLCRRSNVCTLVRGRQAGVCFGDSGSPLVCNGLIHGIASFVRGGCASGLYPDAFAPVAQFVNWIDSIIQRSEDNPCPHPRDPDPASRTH

Target: cyclin E1 (human (endogenous in U2OS and 143B)) (UniProt P24864)
Assay: co-IP; whole-cell lysate of U2OS and 143B cells incubated with cyclin E1 antibody (1:50) overnight at 4°C, protein A/G agarose beads 1.5 h at 4°C; Western blot for ELA2, calpain 1 and calpain 2

neutrophil elastase (from UniProt P08246 30-267) (enzyme)
binding: binds
